Results are given in words; binding and its absence hold for the method and conditions named. Binding seen in cells or lysates may run through a third protein. These calls come from enrichment with a bait or labelling near it, and not all partners need be listed. Sequences can lack the tags named with a protein.
target: T1, GFP-Rab41 (human) (UniProt Q5JT25); test: affinity purification with mass spectrometry; HEK293T expressing GFP or GFP-Rab41, treated with DMSO or LLOMe; GFP-Trap beads; n = 4; proteins found in the GFP-only condition removed
T1 sequence: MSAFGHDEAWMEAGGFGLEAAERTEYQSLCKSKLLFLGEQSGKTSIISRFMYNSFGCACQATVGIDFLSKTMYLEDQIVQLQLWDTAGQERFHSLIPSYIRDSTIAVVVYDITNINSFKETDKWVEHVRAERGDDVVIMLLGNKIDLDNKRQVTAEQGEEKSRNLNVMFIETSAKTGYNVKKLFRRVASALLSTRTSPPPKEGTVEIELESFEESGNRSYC

Protein sequences, listed by entry. Tags and fused reporters are not part of them.
UniProt Q00610: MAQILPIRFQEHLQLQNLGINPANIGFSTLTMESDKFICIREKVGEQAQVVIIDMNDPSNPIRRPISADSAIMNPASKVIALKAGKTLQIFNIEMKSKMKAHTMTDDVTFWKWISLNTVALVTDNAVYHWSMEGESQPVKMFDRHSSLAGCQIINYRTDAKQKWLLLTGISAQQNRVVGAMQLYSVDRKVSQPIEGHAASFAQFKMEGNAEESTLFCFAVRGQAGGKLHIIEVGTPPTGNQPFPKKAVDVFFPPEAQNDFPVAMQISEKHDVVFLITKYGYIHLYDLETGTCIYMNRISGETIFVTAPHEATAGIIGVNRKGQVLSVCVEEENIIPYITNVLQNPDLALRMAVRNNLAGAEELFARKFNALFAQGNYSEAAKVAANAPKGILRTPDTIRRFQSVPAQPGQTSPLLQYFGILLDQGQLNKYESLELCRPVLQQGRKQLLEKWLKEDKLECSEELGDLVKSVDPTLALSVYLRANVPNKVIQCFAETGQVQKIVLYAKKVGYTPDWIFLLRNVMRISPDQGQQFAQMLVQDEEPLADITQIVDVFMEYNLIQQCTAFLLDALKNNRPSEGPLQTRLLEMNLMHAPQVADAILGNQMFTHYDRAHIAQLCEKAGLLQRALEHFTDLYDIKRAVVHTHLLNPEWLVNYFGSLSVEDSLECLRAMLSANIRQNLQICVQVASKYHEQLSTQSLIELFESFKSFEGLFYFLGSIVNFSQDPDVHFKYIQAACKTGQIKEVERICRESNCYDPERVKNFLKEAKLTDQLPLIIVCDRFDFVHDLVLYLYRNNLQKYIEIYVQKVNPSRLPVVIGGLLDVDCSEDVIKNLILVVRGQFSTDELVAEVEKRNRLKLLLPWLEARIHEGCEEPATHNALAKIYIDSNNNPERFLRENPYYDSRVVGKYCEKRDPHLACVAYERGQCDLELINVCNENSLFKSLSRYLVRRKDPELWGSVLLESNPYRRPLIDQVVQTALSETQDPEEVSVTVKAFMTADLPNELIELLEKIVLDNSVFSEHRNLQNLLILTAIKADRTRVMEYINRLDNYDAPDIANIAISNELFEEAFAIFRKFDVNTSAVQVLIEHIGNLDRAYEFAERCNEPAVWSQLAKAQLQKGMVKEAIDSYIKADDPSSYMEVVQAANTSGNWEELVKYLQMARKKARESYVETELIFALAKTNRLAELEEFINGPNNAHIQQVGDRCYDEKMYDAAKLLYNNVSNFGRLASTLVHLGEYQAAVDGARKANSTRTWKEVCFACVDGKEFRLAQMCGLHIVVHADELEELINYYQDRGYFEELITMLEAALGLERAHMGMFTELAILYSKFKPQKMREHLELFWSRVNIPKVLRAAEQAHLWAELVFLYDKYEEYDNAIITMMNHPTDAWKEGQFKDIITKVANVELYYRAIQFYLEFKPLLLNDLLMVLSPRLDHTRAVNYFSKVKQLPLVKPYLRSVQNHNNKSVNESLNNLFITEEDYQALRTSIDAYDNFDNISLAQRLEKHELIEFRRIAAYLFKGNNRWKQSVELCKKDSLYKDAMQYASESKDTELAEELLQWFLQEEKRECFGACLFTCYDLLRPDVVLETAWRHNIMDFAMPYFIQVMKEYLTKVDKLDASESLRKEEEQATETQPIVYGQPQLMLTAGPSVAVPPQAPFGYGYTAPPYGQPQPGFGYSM
UniProt P35579: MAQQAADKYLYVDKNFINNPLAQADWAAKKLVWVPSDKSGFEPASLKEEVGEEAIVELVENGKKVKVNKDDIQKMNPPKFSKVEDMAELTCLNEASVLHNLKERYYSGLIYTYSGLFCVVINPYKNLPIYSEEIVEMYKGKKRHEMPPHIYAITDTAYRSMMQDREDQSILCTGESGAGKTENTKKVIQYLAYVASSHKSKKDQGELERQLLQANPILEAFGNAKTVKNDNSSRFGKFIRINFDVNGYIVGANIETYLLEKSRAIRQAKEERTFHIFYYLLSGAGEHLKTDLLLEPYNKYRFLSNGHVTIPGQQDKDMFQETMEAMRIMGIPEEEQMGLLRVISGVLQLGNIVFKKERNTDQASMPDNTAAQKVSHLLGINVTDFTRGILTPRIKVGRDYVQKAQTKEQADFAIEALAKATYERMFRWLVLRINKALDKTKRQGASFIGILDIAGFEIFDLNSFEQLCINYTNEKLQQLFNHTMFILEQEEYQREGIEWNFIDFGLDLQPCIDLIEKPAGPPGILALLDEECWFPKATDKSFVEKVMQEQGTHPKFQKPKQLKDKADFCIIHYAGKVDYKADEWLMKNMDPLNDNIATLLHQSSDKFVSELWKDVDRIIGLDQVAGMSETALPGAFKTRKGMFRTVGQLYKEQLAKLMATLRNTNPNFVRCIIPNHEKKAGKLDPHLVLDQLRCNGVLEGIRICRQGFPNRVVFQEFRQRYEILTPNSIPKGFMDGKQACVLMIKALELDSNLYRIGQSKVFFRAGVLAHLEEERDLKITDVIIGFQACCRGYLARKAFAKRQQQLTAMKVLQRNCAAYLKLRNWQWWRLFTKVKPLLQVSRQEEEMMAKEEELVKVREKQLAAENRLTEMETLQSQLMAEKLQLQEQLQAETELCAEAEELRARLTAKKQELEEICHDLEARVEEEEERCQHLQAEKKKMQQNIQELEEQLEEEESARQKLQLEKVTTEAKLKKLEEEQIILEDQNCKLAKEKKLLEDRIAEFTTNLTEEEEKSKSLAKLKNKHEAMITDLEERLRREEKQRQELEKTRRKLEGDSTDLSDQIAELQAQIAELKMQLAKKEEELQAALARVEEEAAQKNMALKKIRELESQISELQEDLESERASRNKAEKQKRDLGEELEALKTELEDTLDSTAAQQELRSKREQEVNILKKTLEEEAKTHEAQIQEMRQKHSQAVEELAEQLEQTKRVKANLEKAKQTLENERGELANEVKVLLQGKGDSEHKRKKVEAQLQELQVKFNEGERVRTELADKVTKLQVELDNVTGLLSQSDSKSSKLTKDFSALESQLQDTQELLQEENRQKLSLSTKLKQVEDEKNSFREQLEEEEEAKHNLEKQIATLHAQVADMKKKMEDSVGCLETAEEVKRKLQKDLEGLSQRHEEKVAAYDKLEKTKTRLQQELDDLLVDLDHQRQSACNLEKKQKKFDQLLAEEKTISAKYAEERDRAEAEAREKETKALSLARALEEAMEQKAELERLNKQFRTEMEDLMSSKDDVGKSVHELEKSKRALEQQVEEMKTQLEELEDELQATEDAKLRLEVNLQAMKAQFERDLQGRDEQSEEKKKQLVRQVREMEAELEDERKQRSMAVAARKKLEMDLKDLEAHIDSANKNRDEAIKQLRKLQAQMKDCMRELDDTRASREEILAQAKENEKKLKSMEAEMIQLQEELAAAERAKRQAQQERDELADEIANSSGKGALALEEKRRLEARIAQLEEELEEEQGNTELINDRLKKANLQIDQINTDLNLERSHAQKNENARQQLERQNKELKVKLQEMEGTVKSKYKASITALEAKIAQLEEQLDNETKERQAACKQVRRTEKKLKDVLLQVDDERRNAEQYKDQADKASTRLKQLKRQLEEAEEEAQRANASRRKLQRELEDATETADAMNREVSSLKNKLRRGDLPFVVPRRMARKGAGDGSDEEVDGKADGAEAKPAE
UniProt Q99942: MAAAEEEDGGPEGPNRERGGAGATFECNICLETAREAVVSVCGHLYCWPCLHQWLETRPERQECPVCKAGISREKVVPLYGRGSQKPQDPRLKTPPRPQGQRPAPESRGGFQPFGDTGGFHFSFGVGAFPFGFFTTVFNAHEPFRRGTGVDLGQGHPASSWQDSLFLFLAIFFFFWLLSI

binding, binds:
CLTC (from UniProt Q00610 1-1675)
MYH9 (from UniProt P35579 1-1960)
RNF5 (from UniProt Q99942 1-180)

Reference: publication PMC10558455
